Assay results reported in the supplement of paper PMC7666118.
The other results are listed elsewhere or left out.

Chains of the proteins cited; added tags and fusions are not shown. Lines headed by an entry give the natural chain unless they say otherwise; changes in a name come on top.
UniProt O00400: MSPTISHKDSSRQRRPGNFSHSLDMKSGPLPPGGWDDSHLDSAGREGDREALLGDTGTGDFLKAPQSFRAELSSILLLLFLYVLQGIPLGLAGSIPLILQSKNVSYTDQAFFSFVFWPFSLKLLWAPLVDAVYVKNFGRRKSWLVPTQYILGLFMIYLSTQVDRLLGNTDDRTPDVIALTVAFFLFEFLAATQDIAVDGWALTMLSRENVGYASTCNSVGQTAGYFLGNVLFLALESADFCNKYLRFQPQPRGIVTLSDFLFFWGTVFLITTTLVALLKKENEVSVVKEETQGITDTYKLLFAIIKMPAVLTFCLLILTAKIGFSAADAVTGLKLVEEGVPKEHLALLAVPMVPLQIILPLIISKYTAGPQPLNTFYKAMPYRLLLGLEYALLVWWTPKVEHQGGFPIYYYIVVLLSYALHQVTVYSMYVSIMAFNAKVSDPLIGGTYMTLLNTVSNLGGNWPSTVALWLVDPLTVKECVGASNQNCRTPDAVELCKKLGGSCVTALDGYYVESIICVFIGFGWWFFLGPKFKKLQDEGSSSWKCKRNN
UniProt Q9H299: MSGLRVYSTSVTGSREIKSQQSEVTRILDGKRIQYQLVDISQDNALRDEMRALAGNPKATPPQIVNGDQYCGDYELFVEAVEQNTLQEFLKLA
UniProt P51531, whole entry: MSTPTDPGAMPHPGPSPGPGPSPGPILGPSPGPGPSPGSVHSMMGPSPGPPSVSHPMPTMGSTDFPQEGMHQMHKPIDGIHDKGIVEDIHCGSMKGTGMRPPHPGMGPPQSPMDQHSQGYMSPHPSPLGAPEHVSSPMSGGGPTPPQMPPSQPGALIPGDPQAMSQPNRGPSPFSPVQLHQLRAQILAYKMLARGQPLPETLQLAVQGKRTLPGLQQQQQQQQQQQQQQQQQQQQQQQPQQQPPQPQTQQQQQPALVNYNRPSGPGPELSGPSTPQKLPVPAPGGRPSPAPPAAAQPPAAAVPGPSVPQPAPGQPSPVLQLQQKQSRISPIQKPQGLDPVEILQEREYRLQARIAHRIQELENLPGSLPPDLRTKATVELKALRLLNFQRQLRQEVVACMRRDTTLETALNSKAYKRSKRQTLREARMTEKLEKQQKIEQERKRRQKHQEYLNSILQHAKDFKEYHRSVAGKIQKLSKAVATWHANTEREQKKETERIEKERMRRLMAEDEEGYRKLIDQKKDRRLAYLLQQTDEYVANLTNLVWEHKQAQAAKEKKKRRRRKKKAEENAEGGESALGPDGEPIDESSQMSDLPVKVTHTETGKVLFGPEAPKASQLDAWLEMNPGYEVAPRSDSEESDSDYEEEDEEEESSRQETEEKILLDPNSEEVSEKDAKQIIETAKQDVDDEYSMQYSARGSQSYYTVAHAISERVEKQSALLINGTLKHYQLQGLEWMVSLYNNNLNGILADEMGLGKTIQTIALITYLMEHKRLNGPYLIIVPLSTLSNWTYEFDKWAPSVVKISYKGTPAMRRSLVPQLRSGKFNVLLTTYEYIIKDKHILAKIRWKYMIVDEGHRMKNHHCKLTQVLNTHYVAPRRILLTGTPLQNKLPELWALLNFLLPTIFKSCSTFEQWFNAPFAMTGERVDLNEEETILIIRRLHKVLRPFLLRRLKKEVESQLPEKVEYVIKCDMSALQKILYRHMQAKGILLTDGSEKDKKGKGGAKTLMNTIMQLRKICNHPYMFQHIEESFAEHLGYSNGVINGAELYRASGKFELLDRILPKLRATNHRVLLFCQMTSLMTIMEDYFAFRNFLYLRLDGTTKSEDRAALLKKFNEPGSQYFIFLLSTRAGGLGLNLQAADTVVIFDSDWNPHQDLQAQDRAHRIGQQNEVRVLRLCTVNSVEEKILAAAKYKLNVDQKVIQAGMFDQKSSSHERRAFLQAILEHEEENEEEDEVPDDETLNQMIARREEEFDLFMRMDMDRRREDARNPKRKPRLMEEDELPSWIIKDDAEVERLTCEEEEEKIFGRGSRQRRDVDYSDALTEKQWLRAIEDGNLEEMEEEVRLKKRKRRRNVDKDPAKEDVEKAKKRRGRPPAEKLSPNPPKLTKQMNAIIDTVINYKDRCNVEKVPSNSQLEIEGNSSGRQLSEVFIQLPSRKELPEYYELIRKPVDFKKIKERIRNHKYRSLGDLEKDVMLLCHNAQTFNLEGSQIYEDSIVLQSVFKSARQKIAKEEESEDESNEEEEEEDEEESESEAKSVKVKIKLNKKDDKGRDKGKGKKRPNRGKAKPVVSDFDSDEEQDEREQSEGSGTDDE
UniProt Q15477, whole entry: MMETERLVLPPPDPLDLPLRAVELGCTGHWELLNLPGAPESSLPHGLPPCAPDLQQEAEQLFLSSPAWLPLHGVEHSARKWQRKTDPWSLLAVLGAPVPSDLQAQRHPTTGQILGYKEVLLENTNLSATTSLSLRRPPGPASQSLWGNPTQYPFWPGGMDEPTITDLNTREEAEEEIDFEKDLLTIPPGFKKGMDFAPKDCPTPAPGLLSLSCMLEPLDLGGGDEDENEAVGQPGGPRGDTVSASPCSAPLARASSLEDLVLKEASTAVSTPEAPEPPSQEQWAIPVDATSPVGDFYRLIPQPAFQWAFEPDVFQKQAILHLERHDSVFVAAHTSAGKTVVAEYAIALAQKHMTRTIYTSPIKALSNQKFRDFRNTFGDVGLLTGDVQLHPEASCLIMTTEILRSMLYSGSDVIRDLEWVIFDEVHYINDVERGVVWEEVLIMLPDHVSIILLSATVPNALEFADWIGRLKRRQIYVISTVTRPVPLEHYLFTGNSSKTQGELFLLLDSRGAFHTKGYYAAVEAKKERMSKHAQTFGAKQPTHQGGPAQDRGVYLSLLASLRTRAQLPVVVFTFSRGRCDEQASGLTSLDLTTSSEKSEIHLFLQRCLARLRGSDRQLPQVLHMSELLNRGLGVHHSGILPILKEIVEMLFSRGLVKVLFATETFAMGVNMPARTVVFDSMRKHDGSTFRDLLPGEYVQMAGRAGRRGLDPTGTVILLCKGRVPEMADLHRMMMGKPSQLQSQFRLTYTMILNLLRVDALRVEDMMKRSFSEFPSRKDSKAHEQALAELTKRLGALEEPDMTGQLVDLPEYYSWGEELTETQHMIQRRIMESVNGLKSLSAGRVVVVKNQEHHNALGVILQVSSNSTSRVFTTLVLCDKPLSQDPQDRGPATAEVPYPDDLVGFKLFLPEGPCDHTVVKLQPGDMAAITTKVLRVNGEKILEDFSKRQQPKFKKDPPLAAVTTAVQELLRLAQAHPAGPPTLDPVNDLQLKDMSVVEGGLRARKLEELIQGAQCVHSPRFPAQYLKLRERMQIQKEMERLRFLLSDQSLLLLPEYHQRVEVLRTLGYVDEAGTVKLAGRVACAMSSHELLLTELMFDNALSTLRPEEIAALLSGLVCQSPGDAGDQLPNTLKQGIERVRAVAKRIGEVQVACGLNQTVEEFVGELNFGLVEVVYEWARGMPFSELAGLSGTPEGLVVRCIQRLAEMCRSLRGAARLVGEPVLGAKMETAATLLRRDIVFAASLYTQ
UniProt Q96K37: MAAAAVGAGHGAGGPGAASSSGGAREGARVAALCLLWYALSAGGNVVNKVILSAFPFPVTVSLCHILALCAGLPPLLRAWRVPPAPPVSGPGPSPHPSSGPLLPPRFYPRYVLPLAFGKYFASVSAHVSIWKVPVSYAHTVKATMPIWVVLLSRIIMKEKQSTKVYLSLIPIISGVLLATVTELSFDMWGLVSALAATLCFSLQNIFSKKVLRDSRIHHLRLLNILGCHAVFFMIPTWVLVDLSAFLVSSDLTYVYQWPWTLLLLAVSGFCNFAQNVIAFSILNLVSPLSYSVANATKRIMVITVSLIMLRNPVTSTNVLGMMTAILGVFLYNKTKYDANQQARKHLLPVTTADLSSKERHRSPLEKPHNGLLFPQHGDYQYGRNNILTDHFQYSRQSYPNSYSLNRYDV
UniProt Q96A29: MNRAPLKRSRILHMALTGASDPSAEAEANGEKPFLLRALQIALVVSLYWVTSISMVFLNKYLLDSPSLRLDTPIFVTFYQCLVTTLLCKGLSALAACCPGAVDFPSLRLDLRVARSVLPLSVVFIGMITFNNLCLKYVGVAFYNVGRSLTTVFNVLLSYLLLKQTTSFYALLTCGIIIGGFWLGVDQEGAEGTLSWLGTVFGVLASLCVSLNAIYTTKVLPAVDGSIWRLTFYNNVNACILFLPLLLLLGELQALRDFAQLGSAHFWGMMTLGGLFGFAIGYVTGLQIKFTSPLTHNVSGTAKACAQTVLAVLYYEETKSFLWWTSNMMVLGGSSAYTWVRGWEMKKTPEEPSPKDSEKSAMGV
UniProt O15427: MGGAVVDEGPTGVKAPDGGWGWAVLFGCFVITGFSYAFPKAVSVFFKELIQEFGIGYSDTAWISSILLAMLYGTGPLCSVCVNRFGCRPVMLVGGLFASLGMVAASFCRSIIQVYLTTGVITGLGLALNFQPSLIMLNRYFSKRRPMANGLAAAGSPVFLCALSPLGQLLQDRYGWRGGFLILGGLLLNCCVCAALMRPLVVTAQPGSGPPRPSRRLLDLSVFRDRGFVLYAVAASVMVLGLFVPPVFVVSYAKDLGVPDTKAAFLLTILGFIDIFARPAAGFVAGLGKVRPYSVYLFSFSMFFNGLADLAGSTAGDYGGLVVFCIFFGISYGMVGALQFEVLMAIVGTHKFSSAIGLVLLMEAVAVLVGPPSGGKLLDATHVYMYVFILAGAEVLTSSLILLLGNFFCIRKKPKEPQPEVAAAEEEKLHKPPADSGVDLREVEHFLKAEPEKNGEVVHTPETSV
UniProt Q96H78: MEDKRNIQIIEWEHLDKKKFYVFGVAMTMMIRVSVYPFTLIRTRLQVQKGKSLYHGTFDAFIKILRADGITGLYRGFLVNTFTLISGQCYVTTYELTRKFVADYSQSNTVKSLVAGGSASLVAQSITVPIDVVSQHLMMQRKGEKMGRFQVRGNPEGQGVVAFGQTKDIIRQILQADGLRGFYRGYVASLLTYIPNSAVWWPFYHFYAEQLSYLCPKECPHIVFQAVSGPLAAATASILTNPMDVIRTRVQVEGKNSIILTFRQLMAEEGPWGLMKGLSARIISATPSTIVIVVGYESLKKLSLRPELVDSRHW
UniProt Q9NTG7: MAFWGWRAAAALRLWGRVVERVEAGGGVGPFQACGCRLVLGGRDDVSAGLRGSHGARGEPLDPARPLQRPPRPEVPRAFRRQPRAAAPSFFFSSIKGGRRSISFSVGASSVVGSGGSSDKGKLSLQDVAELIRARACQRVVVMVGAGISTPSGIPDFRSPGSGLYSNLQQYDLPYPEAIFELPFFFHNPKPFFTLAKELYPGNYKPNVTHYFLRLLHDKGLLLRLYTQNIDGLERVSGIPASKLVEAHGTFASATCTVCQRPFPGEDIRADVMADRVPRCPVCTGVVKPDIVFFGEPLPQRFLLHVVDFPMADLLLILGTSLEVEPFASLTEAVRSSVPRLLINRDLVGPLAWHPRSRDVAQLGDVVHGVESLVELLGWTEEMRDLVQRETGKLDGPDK
UniProt Q96EQ0: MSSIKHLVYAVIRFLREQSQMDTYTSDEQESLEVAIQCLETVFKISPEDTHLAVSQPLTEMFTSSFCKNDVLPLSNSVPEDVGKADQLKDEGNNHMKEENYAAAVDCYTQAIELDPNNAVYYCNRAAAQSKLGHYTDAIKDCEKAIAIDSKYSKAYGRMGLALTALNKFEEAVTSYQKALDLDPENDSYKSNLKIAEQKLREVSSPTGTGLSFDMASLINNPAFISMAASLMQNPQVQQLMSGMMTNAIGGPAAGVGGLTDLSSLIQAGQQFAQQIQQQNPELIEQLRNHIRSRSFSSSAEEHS
UniProt Q99808: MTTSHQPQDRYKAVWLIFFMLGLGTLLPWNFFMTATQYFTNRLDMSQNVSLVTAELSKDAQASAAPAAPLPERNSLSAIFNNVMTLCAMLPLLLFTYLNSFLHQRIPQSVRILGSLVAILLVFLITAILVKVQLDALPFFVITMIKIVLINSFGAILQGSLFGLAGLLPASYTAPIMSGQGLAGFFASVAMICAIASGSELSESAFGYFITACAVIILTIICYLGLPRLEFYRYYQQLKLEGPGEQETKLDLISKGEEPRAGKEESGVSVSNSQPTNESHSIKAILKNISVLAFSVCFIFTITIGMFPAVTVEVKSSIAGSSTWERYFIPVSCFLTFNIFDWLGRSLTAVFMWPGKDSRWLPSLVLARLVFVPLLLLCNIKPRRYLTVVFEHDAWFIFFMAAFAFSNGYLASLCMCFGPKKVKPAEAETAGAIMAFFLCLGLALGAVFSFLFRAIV
UniProt O43808: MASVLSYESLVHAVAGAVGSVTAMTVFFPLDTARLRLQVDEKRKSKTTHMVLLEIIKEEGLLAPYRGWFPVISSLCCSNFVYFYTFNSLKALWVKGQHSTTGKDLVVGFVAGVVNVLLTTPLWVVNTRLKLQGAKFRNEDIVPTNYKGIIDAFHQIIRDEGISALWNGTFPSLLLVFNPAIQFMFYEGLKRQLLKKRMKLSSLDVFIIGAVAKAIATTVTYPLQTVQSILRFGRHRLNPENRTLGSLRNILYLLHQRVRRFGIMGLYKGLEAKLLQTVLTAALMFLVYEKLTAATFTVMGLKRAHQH

compound: COc1ccc(Cn2ccc3cc(C)c(C(=O)NO)cc32)cc1; assay: dose-dependent thermal stabilisation call (2D-TPP, DLPTP, 10% FDR) (binary (1 = stabilised)); higher = stabilised by the compound; settings: system: HL-60 intact cells; concentration range 0.04-10 µM
Experimental: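 2D thermal proteome profiling in intact HL-60 cells treated with BRD-3811 (0, 0.04, 0.29, 2, 10 uM) for 90 min at 37 C, then heated 3 min at one of 12 temperatures (42-63.9 C). Soluble protein was quantified by TMT10 MS. The value is the DLPTP call of the paper: dose-dependent thermal stabilisation over all temperatures at 10% FDR (F-test of a dose-response against a flat model); one experiment, one call per tested protein.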

Row | Target | dose-dependent thermal stabilisation call
1 | SLC44A1 (UniProt Q8WWI5) | inactive: 0
2 | SKIV2L2 (UniProt P42285) | inactive: 0
3 | SFRS10 (UniProt P62995) | inactive: 0
4 | SLC25A1 (UniProt P53007) | inactive: 0
5 | SLC31A1 (UniProt O15431) | inactive: 0
6 | SLC33A1 (UniProt O00400) | inactive: 0
7 | SLC25A19 (UniProt Q9HC21) | inactive: 0
8 | SH3BGRL3 (UniProt Q9H299) | inactive: 0
9 | SLC25A15 (UniProt Q9Y619) | inactive: 0
10 | SHMT1 (UniProt P34896) | inactive: 0
11 | SMARCA2 (UniProt P51531) | inactive: 0
12 | SLC25A10 (UniProt Q9UBX3) | inactive: 0
13 | SLC9A1 (UniProt P19634) | inactive: 0
14 | SKIV2L (UniProt Q15477) | inactive: 0
15 | SGOL2 (UniProt Q562F6) | inactive: 0
16 | SLC35E1 (UniProt Q96K37) | inactive: 0
17 | SLC35C1 (UniProt Q96A29) | inactive: 0
18 | SMARCA5 (UniProt O60264) | inactive: 0
19 | SFRS12 (UniProt Q8WXA9) | inactive: 0
20 | SMPDL3B (UniProt Q92485) | inactive: 0

Row | Target | dose-dependent thermal stabilisation call
21 | SLC25A22 (UniProt Q9H936) | inactive: 0
22 | SMYD3 (UniProt Q9H7B4) | inactive: 0
23 | SGTA (UniProt O43765) | inactive: 0
24 | SLC16A3 (UniProt O15427) | inactive: 0
25 | SLC25A44 (UniProt Q96H78) | inactive: 0
26 | SLC25A6 (UniProt P12236) | inactive: 0
27 | SLC27A1 (UniProt Q6PCB7) | inactive: 0
28 | SH3GLB2 (UniProt Q9NR46) | inactive: 0
29 | SFXN4 (UniProt Q6P4A7) | inactive: 0
30 | SIRT3 (UniProt Q9NTG7) | inactive: 0
31 | SGTB (UniProt Q96EQ0) | inactive: 0
32 | SLC29A1 (UniProt Q99808) | inactive: 0
33 | SLCO4C1 (UniProt Q6ZQN7) | inactive: 0
34 | SLC25A37 (UniProt Q9NYZ2) | inactive: 0
35 | SIP1 | inactive: 0
36 | SLC29A2 (UniProt Q14542) | inactive: 0
37 | SHC1 (UniProt P29353) | inactive: 0
38 | SLC25A17 (UniProt O43808) | inactive: 0
39 | SFRS7 (UniProt Q16629) | inactive: 0
40 | SLC16A1 (UniProt P53985) | inactive: 0

A section of the results above:
Row | Target | dose-dependent thermal stabilisation call
33 | SLCO4C1 (UniProt Q6ZQN7) | inactive: 0
34 | SLC25A37 (UniProt Q9NYZ2) | inactive: 0
35 | SIP1 | inactive: 0
